Measurements as given in the supplement of paper PMC10849652.
This is one part of the list.

Protein sequences, listed by entry. Tags and fused reporters are not part of them. Lines headed by an entry give the natural chain unless they say otherwise; changes in a name come on top.
UniProt Q7L211: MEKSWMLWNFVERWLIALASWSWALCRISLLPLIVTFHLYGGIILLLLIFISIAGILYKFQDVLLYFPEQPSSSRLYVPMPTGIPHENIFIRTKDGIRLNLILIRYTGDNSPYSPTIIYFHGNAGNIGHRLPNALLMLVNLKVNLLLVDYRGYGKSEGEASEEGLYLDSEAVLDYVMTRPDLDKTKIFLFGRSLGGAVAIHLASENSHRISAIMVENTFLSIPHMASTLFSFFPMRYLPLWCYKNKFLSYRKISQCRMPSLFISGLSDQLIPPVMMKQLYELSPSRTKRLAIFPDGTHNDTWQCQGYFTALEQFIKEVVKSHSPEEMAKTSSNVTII
UniProt P33527: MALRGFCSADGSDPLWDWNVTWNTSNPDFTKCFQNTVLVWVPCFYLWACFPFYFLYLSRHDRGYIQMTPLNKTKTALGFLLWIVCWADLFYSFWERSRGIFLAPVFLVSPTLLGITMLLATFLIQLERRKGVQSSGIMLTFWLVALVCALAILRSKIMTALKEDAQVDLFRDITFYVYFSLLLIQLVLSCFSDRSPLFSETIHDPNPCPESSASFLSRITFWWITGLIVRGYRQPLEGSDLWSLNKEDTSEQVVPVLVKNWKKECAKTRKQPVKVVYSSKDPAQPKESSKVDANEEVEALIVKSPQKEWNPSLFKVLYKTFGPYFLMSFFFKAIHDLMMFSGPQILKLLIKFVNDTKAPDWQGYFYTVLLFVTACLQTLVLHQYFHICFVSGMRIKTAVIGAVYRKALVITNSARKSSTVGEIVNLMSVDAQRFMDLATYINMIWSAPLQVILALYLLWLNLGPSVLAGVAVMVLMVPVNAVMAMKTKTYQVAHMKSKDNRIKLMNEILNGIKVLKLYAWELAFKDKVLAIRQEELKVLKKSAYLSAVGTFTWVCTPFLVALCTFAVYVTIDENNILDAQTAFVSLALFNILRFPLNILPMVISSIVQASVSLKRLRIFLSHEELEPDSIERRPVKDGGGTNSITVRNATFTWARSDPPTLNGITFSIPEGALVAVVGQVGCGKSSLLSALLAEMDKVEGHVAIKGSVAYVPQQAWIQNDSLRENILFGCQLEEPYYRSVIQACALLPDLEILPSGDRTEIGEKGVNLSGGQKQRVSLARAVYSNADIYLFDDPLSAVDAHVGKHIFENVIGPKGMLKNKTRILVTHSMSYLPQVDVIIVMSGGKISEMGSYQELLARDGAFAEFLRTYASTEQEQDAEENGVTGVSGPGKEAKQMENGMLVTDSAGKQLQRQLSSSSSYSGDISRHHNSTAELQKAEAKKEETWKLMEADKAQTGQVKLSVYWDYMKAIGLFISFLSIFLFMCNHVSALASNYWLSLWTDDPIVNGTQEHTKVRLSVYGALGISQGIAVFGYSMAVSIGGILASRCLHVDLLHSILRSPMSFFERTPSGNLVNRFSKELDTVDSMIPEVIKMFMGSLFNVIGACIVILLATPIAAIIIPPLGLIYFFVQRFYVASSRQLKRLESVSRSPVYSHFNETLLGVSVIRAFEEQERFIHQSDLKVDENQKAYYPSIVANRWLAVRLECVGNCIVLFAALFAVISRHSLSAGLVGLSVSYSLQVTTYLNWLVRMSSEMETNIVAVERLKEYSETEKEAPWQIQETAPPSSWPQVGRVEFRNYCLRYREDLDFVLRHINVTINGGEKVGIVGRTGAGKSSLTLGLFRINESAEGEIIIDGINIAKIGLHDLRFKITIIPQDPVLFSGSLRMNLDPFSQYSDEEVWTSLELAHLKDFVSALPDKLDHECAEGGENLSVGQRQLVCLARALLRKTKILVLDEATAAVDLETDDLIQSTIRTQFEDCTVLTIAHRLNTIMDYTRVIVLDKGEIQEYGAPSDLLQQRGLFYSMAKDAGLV
UniProt Q9Y312: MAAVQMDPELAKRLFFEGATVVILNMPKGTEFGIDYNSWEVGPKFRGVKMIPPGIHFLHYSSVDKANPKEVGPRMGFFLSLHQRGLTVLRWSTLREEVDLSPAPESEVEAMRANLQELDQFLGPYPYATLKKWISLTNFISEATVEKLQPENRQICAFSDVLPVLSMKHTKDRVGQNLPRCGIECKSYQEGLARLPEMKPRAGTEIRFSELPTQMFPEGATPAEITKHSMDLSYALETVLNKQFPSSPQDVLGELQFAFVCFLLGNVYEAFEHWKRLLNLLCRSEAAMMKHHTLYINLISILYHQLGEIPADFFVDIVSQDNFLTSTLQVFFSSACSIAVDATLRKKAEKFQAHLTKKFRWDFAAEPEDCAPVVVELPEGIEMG
UniProt P12814, whole entry, looked up: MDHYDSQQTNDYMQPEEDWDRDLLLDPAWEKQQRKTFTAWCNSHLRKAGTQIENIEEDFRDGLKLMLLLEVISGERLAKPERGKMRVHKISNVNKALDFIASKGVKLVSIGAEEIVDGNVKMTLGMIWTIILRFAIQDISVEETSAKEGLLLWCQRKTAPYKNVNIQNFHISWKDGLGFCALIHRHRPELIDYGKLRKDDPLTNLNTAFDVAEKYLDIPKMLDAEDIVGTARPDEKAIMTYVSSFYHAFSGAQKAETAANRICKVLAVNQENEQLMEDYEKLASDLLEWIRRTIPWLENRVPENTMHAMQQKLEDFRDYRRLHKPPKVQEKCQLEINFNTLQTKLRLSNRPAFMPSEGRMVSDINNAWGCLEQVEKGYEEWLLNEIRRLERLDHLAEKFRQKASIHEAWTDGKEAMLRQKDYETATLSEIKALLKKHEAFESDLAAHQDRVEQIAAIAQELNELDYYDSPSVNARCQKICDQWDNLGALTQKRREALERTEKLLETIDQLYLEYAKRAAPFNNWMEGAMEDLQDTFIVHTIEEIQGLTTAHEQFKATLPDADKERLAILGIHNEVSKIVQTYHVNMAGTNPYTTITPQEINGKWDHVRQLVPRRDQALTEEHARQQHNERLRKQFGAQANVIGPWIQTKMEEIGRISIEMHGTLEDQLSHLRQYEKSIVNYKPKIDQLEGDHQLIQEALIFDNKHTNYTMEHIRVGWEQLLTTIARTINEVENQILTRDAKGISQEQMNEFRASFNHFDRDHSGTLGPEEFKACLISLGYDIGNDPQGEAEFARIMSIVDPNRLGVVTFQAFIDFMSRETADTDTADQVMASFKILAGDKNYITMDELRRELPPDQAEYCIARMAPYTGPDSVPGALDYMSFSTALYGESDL
UniProt P53396: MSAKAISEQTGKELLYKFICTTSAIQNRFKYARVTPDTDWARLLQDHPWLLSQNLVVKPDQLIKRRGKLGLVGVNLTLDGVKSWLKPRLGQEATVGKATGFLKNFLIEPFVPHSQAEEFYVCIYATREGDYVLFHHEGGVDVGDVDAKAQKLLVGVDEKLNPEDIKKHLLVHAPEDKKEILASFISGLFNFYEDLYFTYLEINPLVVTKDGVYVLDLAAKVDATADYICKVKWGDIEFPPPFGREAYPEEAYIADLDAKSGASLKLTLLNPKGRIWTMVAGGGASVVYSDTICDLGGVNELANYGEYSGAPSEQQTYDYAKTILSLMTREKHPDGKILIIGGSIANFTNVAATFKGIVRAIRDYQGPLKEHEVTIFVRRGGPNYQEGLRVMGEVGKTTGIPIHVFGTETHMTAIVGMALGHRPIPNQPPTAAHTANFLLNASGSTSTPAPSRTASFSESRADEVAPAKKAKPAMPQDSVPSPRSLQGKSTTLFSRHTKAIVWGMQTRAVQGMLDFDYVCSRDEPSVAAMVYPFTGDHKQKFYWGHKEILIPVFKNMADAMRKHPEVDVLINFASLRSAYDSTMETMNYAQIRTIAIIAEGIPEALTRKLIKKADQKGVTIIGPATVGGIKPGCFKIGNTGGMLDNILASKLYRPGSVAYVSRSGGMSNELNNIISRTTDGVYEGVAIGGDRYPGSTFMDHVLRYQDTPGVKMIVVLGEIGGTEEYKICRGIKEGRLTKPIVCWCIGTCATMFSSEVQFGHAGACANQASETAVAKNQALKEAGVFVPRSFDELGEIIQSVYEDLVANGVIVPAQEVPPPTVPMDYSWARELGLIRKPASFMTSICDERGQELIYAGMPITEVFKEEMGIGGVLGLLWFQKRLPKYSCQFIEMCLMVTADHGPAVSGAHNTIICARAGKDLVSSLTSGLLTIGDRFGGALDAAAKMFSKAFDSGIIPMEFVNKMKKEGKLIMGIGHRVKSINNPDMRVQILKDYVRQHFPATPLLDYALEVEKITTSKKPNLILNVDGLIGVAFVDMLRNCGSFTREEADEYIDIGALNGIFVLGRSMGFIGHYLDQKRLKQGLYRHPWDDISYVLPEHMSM
UniProt Q4L235: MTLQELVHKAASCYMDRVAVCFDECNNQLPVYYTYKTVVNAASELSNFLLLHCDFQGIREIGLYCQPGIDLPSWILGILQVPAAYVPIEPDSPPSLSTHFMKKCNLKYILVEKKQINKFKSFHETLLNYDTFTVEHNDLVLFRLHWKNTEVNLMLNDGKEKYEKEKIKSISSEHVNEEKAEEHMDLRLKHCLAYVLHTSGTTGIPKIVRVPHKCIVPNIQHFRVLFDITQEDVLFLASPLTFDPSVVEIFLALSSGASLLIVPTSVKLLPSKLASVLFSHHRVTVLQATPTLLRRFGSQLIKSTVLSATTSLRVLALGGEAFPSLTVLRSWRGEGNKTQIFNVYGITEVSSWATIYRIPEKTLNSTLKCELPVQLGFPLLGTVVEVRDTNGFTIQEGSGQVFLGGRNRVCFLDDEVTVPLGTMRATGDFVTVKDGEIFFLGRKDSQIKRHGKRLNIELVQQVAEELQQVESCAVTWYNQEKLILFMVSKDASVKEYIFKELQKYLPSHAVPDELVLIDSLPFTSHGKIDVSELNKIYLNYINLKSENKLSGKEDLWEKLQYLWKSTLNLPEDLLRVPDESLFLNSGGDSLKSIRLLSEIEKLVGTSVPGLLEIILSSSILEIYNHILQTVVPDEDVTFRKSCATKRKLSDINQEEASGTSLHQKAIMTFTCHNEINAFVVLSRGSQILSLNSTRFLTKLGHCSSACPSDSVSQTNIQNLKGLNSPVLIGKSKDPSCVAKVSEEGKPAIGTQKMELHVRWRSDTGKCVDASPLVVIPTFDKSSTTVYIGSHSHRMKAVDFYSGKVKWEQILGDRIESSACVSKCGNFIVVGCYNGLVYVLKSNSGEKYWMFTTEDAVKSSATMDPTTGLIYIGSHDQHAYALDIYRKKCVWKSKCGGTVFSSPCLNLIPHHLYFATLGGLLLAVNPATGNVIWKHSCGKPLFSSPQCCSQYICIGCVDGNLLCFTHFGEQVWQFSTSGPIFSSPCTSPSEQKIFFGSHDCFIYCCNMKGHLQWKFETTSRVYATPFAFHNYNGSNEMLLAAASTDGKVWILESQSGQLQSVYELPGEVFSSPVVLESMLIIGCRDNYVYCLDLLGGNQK
UniProt Q9NPJ3: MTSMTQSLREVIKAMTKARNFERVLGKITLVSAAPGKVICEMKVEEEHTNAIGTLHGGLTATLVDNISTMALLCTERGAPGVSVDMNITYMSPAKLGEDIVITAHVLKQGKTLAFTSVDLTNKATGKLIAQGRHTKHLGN
UniProt P24752: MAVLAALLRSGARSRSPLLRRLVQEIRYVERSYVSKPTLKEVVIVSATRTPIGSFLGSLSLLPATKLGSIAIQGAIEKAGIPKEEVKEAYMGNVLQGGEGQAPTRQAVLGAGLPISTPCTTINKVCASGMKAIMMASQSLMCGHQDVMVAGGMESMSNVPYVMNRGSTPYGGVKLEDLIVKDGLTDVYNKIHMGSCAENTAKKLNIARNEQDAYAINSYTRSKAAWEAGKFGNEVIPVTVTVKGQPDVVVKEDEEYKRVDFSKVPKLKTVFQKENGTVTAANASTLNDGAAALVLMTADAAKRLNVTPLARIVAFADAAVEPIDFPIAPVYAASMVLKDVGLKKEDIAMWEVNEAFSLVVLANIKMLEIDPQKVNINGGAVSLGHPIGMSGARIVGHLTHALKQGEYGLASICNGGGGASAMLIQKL
UniProt Q8IZP0: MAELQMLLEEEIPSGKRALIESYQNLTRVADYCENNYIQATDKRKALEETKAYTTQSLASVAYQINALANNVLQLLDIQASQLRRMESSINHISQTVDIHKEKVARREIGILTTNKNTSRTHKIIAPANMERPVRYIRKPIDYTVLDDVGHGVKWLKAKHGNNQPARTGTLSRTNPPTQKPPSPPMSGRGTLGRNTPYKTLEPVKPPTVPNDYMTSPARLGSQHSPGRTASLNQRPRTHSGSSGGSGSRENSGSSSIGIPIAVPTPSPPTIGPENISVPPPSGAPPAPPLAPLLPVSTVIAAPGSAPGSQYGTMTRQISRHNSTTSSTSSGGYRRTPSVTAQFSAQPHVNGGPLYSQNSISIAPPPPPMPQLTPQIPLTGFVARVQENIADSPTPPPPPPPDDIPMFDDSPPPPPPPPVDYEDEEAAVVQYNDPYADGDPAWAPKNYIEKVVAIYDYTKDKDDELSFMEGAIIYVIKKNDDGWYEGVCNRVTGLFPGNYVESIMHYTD
UniProt Q9NX38: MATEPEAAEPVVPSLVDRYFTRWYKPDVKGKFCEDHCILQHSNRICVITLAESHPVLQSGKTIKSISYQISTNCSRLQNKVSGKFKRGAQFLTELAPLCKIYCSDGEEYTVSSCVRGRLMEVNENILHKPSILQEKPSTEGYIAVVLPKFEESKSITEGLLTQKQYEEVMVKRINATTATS

Key:
Test in all cases: log2 fold change, soluble protein after heating vs DMSO (PISA); higher = thermal stabilisation; K562 cells, 10 uM, 30 min; active = over 0.2 and 3.5 SD of the protein, either way, in both replicates (recomputed)
[1] = compound: CC1=C(C=C(C=C1)NC(=O)C2=CC(=CC=C2)C(C)(C)C#N)NC3=CC4=C(C=C3)N=CN(C4=O)C
Method in brief: (§1)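 K562 cells at 2×10^6 cells/mL were exposed to 10 μM compound for 30 min, then aliquots were heated for 3 min across 48°C-58°C, pooled, and extracted in PBS containing 0.5% NP-40 at 4°C. The supernatant after 21,000xg for 90 min was taken as soluble protein and measured by TMTpro 16plex LC-MS/MS with channel sums equalised. Thermal stability is reported relative to control samples, with values from duplicates. Fold changes are given on a log2 scale.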

[2] = compound: CC1=C(C=C(C=C1)NC(=O)C2=CC(=CC=C2)N(C)C)NC(=O)C3=CC=C(C=C3)O
Method in brief: as §1

[3] = compound: CC1=CC=C(C=C1)SC2=C3C=C(SC3=CN=C2)C(=O)N
Method in brief: as §1

[4] = compound: CC1=NC(=CC=C1)C2=C(N=C(N2)C(C)(C)C)C3=CC4=NC=CN=C4C=C3
Method in brief: as §1

[5] = compound: CCCCN(Cc1ccc(C(=O)NO)cc1)C(=O)Nc1ccccc1 [Nexturastat A]
Method in brief: as §1

[6] = compound: CCCS(=O)(=O)Nc1ccc(F)c(C(=O)c2c[nH]c3ncc(-c4ccc(Cl)cc4)cc23)c1F [vemurafenib]
Method in brief: as §1

[7] = compound: CCCS(=O)(=O)Nc1ccc(F)c(C(=O)c2c[nH]c3ncc(Cl)cc23)c1F
Method in brief: as §1

[8] = compound: CCCc1cc(C)[nH]c(=O)c1CNC(=O)c1cc(-c2ccnc(N3CCN(C)CC3)c2)cc2c1cnn2C(C)C
Method in brief: as §1

[9] = compound: CCN(CC)Cc1ccc2cc(COC(=O)Nc3ccc(C(=O)NO)cc3)ccc2c1 [givinostat]
Method in brief: as §1

[10] = compound: CCN(CCCOc1ccc2c(Nc3cc(CC(=O)Nc4cccc(F)c4)[nH]n3)ncnc2c1)CCOP(=O)(O)O [barasertib]
Method in brief: as §1

Measured: log2 fold change

ABCD4 (UniProt O14678)
inactive: [1] 0.001 | [2] 0.107 | [3] -0.023 | [4] 0.012 | [5] -0.048 | [6] 0.038 | [7] -0.087 | [8] 0.065 | [9] 0 | [10] 0.14

AAK1 (UniProt Q2M2I8)
inactive: [1] 0.01 | [2] 0 | [3] 0.032 | [4] 0.015 | [5] -0.021 | [6] 0.147 | [7] -0.028 | [8] 0.08 | [9] 0.042 | [10] -0.034

ABCE1 (UniProt P61221)
inactive: [1] 0.043 | [2] 0.014 | [3] 0.009 | [4] 0.076 | [5] -0.103 | [6] -0.031 | [7] -0.017 | [8] -0.045 | [9] -0.037 | [10] -0.013

ABHD13 (UniProt Q7L211)
inactive: [1] 0 | [2] -0.111 | [3] -0.057 | [4] 0.137 | [5] 0.045 | [6] -0.027 | [7] 0.026 | [8] -0.03 | [9] 0.131 | [10] 0.036

ABCC1 (UniProt P33527)
inactive: [1] -0.031 | [2] 0 | [3] -0.03 | [4] 0.005 | [5] -0.035 | [6] 0.005 | [7] 0.001 | [8] -0.068 | [9] 0.012 | [10] 0.005

AAR2 (UniProt Q9Y312)
inactive: [1] -0.01 | [2] -0.026 | [3] -0.032 | [4] -0.035 | [5] 0.074 | [6] -0.018 | [7] 0.021 | [8] -0.105 | [9] 0.018 | [10] -0.023

2 entries drawn at random from those above, as already listed:
ABHD13 (UniProt Q7L211)
inactive: [1] 0 | [2] -0.111 | [3] -0.057 | [4] 0.137 | [5] 0.045 | [6] -0.027 | [7] 0.026 | [8] -0.03 | [9] 0.131 | [10] 0.036

ABCD4 (UniProt O14678)
inactive: [1] 0.001 | [2] 0.107 | [3] -0.023 | [4] 0.012 | [5] -0.048 | [6] 0.038 | [7] -0.087 | [8] 0.065 | [9] 0 | [10] 0.14

Following part.

A2M (UniProt P01023)
inactive: [1] 0.016 | [2] 0.561 | [3] 0.137 | [4] 0.095 | [5] -0.095 | [6] 0.09 | [7] -0.083 | [8] -0.251 | [9] 0.007 | [10] -0.121

ACTN1 (UniProt P12814)
inactive: [1] -0.005 | [2] 0.009 | [3] 0.011 | [4] 0.046 | [5] -0.005 | [6] -0.001 | [7] 0.009 | [8] -0.042 | [9] 0.009 | [10] -0.014

AARS2 (UniProt Q5JTZ9)
inactive: [1] -0.003 | [2] -0.047 | [3] 0.017 | [4] 0.079 | [5] -0.015 | [6] 0.045 | [7] 0.04 | [8] 0.049 | [9] 0.05 | [10] 0.058

ACLY (UniProt P53396)
inactive: [1] -0.008 | [2] 0.013 | [3] 0.011 | [4] 0.016 | [5] -0.058 | [6] 0.01 | [7] 0.01 | [8] 0.013 | [9] -0.035 | [10] 0.019

AASDH (UniProt Q4L235)
inactive: [1] -0.001 | [2] 0.024 | [3] -0.043 | [4] -0.056 | [5] 0.179 | [6] 0.094 | [7] 0.103 | [8] 0.149 | [9] 0.033 | [10] 0.09

ACOT8 (UniProt O14734)
inactive: [1] -0.058 | [2] 0.015 | [3] 0.034 | [4] -0.006 | [5] -0.103 | [6] -0.026 | [7] -0.009 | [8] -0.082 | [9] -0.01 | [10] -0.042

ACTL8 (UniProt Q9H568)
inactive: [1] -0.031 | [2] -0.029 | [3] -0.021 | [4] -0.076 | [5] -0.203 | [6] -0.081 | [7] -0.054 | [8] -0.005 | [9] -0.005 | [10] -0.006

ACTR2 (UniProt P61160)
inactive: [1] -0.011 | [2] 0.001 | [3] -0.013 | [4] 0.006 | [5] -0.029 | [6] 0.027 | [7] 0.003 | [8] -0.037 | [9] -0.055 | [10] 0.012

ACP2 (UniProt P11117)
inactive: [1] -0.014 | [2] -0.013 | [3] 0.029 | [4] -0.027 | [5] -0.08 | [6] 0.017 | [7] -0.023 | [8] -0.038 | [9] 0 | [10] 0.016

ACOT13 (UniProt Q9NPJ3)
inactive: [1] 0.006 | [2] 0.028 | [3] 0.017 | [4] 0.09 | [5] 0.044 | [6] -0.023 | [7] 0.021 | [8] 0.018 | [9] 0.003 | [10] -0.02

ACAT1 (UniProt P24752)
inactive: [1] -0.034 | [2] 0.003 | [3] -0.05 | [4] 0.003 | [5] -0.043 | [6] -0.01 | [7] -0.021 | [8] -0.01 | [9] 0.007 | [10] 0.03

ABI1 (UniProt Q8IZP0)
inactive: [1] -0.012 | [2] -0.003 | [3] -0.051 | [4] 0.015 | [5] -0.07 | [6] -0.005 | [7] 0.007 | [8] 0.128 | [9] 0.057 | [10] -0.02

ABCA4 (UniProt P78363)
active: [5] 0.576
inactive: [1] -0.145 | [2] -0.068 | [4] -0.168 | [8] 0.033 | [9] 0.23 | [10] 0.015

AASDHPPT (UniProt Q9NRN7)
inactive: [1] -0.07 | [2] -0.02 | [3] -0.003 | [4] -0.001 | [5] -0.053 | [6] 0.016 | [7] 0.016 | [8] -0.034 | [9] -0.072 | [10] 0.045

ACLY isoform 2 (UniProt P53396)
inactive: [1] 0.094 | [2] -0.095 | [3] 0.015 | [5] 0.055 | [6] 0.026 | [7] 0 | [8] -0.278 | [9] 0.019 | [10] -0.099

ACSS1 (UniProt Q9NUB1)
inactive: [1] -0.159 | [2] 0.014 | [3] -0.016 | [4] 0.297 | [6] -0.007 | [7] -0.039 | [8] -0.017 | [9] 0.053 | [10] -0.231

ABRACL (UniProt Q9P1F3)
inactive: [1] 0.11 | [2] 0.089 | [4] -0.038 | [8] -0.079 | [10] 0.08

ABCC10 (UniProt Q5T3U5)
inactive: [1] -0.026 | [2] 0.083 | [3] 0.034 | [5] 0.051 | [6] 0.139 | [7] 0.011 | [9] 0.144 | [10] -0.004

ABITRAM (UniProt Q9NX38)
inactive: [1] 0.011 | [2] -0.036 | [3] 0.062 | [4] 0.027 | [5] -0.114 | [6] 0 | [7] 0.095 | [8] -0.252 | [10] 0.03

A2ML1 (UniProt A8K2U0)
inactive: [1] -0.83 | [2] 0.111 | [3] -0.055 | [6] -0.097 | [7] -0.125 | [8] -0.032 | [9] 0.007

ABCB11 (UniProt O95342)
inactive: [1] 0.081 | [2] -0.019 | [3] -0.034 | [7] -0.092 | [8] -0.119
